Laboratory results: article PMC11416262
No constants are given. Whether binding was seen depends on the method and setting.

Target: LplT, lysophospholipid transporter, as a BACTH fusion (E. coli) (UniProt P39196)
Assay: two-hybrid; BACTH (bacterial adenylate cyclase two-hybrid): T18 and T25 fusions coexpressed in E. coli BTH101, spotted on X-Gal LB agar, 48 h at 30 °C; blue colonies and β-galactosidase assays

binding: no binding
Substance: LplT, lysophospholipid transporter, as a BACTH fusion (from UniProt P39196 1-397)
